2 molecules from patent US20100040635A1 can be followed below.

Chains of the proteins cited; added tags and fusions are not shown. Residues count along the entry.
UniProt Q9WFX3, residues 18-529: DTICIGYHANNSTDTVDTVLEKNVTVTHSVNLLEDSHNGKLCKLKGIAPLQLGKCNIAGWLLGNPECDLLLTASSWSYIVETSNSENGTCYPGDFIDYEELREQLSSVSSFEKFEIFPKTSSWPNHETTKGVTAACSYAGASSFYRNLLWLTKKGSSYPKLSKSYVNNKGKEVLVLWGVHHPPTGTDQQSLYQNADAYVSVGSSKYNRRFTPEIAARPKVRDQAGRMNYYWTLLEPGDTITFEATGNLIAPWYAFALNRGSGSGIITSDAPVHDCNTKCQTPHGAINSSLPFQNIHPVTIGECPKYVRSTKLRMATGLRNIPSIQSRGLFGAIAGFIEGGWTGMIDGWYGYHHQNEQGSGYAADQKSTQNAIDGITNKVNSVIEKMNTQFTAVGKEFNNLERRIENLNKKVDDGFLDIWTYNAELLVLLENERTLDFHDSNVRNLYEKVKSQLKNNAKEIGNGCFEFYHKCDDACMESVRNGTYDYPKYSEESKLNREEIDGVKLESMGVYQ

The experiment addresses H1 hemagglutinin of influenza A/South Carolina/1/18 (H1N1) (influenza A virus H1N1 A/South Carolina/1/18) (UniProt Q9WFX3). Put plainly: IgG ELISA on coated hemagglutinin. For orientation: An ELISA detects its analyte on a solid surface through an enzyme-linked reagent.

Changes are numbered by the printed parent chain. No constants are given. Whether binding was seen depends on the method and setting. Some entries that bind do so weakly or less than the wild type.

B1: Antibody 2 (antibody, V domains shown)
VH: QVQLVQSGAEVKKPGSSVKVSCKTSGGTFSSYAVTWVRQAPGQGLEWMGGIIGMFGTTNYAQKFQGRVTITADELTSTAYMELSSLRSEDTAVYYCARGSYYYESSLDYWGRGTL
VL: ETTLTQSPATLSVSPGERATLSCRASQSVSRNLAWYQQKPGQAPRLLIYGASSRATGIPDRFSGSGSGTDFTLTISRLEPEDFAVYYCQQYGSSSITFGQGTRLEIKR
With B1, the binding entry is reported as “binds”.

B2: Antibody 3 (antibody, V domains shown)
V domain 1: B1 VH with Q1E, G50A, E89D, R112K
V domain 2: QSVLTQPPSVSGAPGQRVTISCGGSRSNIGAGYDVHWYQQFPGTAPKVVIYGNNNRPSGVPDRFSGSKSGTSASLAITGLQAEDEANYYCQSYDTNLGGSIFGGGTQVTVL
Turning to B2, the binding entry is given as “binds”.
